PubChem BioAssay AID1259254 | NCATS – 2017

Assay: 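Genome-wide screen for genes that prevent DNA re-replication in cancer cells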 (primary screen)
Cells: human HCT116 colorectal cancer cells
Reagent: single siRNA against human genes
Duration: 3 days
Read-out: 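Nuclei stained with Hoechst and imaged; cell-cycle phase assigned by DNA content; G2 share scaled per plate, non-targeting siRNA 0%, GMNN siRNA 100%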
Direction: G2 robust z-score: higher = more G2 cells, more excess DNA replication
Hit rule: 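Active siRNAs have a G2 robust z of 5 or more median absolute deviations over the median, which in these data means about 38% or higher of GMNN control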
In all, the deposit lists about 59,000 reagents; shown is a part drawn at random. About 1,550 of all reagents (2.6%) were called active. 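G2 share is only a proxy for re-replication; each gene was hit by three separate siRNAs, and active genes were retested.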 The numbers tell different reagents against one gene apart. Not all columns of the deposit are shown. Reagent sequences are not shown. Not stated in the record: the amount of reagent.

| gene symbol | siRNA no. | G2 robust z-score | outcome |
| --- | --- | --- | --- |
| FOXN2 (forkhead box N2) | 1 | -0.392 | inactive |
| FOXN2 (forkhead box N2) | 2 | -0.864 | inactive |
| FOXN2 (forkhead box N2) | 3 | -1.28 | inactive |
| GPR135 (G protein-coupled receptor 135) | 1 | -1.15 | inactive |
| GPR135 (G protein-coupled receptor 135) | 2 | -0.179 | inactive |
| GPR135 (G protein-coupled receptor 135) | 3 | 6.33 | active |
| TFDP2 (transcription factor Dp-2) | 1 | -0.66 | inactive |
| TFDP2 (transcription factor Dp-2) | 2 | -0.161 | inactive |
| TFDP2 (transcription factor Dp-2) | 3 | -0.329 | inactive |
| BFSP2 (beaded filament structural protein 2) | 1 | 0.62 | inactive |
| BFSP2 (beaded filament structural protein 2) | 2 | 1.7 | inactive |
| BFSP2 (beaded filament structural protein 2) | 3 | 1.43 | inactive |
| MOV10L1 (Mov10 like RNA helicase 1) | 1 | -0.373 | inactive |
| MOV10L1 (Mov10 like RNA helicase 1) | 2 | -1.14 | inactive |
| MOV10L1 (Mov10 like RNA helicase 1) | 3 | -0.571 | inactive |
| NEK3 (NIMA related kinase 3) | 1 | 2.57 | inactive |
| NEK3 (NIMA related kinase 3) | 2 | -0.0407 | inactive |
| NEK3 (NIMA related kinase 3) | 3 | -1.2 | inactive |
| LNPK (lunapark, ER junction formation factor) | 1 | 3.52 | inactive |
| LNPK (lunapark, ER junction formation factor) | 2 | -0.497 | inactive |
| LNPK (lunapark, ER junction formation factor) | 3 | -0.543 | inactive |
| STPG1 (sperm tail PG-rich repeat containing 1) | 1 | 0.0647 | inactive |
| STPG1 (sperm tail PG-rich repeat containing 1) | 2 | -0.0154 | inactive |
| STPG1 (sperm tail PG-rich repeat containing 1) | 3 | 0.476 | inactive |
| ZNF816 (zinc finger protein 816) | 1 | -0.404 | inactive |
| ZNF816 (zinc finger protein 816) | 2 | -0.271 | inactive |
| ZNF816 (zinc finger protein 816) | 3 | 0.537 | inactive |
| SLC17A8 | 1 | 3.17 | inactive |
| SLC17A8 | 2 | -0.0911 | inactive |
| SLC17A8 | 3 | -0.122 | inactive |

Copied from the listing for reference:
| gene symbol | siRNA no. | G2 robust z-score | outcome |
| --- | --- | --- | --- |
| BFSP2 (beaded filament structural protein 2) | 3 | 1.43 | inactive |
| MOV10L1 (Mov10 like RNA helicase 1) | 1 | -0.373 | inactive |
| MOV10L1 (Mov10 like RNA helicase 1) | 2 | -1.14 | inactive |
| MOV10L1 (Mov10 like RNA helicase 1) | 3 | -0.571 | inactive |
| NEK3 (NIMA related kinase 3) | 1 | 2.57 | inactive |
| NEK3 (NIMA related kinase 3) | 2 | -0.0407 | inactive |

The listing continues.
| gene symbol | siRNA no. | G2 robust z-score | outcome |
| --- | --- | --- | --- |
| NACC2 (NACC family member 2) | 1 | -1.01 | inactive |
| NACC2 (NACC family member 2) | 2 | -0.102 | inactive |
| NACC2 (NACC family member 2) | 3 | 0.153 | inactive |
| MPC1L | 1 | 4.97 | inactive |
| MPC1L | 2 | 2.48 | inactive |
| MPC1L | 3 | -1.15 | inactive |
| CHMP6 (charged multivesicular body protein 6) | 1 | -0.744 | inactive |
| CHMP6 (charged multivesicular body protein 6) | 2 | 1.48 | inactive |
| CHMP6 (charged multivesicular body protein 6) | 3 | -0.228 | inactive |
| SMARCC2 (SWI/SNF related BAF chromatin remodeling complex subunit C2) | 1 | -0.378 | inactive |
| SMARCC2 (SWI/SNF related BAF chromatin remodeling complex subunit C2) | 2 | -0.791 | inactive |
| SMARCC2 (SWI/SNF related BAF chromatin remodeling complex subunit C2) | 3 | 1.53 | inactive |
| SMC4 (structural maintenance of chromosomes 4) | 1 | 3.52 | inactive |
| SMC4 (structural maintenance of chromosomes 4) | 2 | 3.56 | inactive |
| SMC4 (structural maintenance of chromosomes 4) | 3 | 1.31 | inactive |
| POU4F3 (POU class 4 homeobox 3) | 1 | -0.198 | inactive |
| POU4F3 (POU class 4 homeobox 3) | 2 | -0.745 | inactive |
| POU4F3 (POU class 4 homeobox 3) | 3 | -0.474 | inactive |
| RPSAP48 (ribosomal protein SA pseudogene 48) | 1 | -0.484 | inactive |
| RPSAP48 (ribosomal protein SA pseudogene 48) | 2 | 2.86 | inactive |
| RPSAP48 (ribosomal protein SA pseudogene 48) | 3 | -1.03 | inactive |
| RPS17 (ribosomal protein S17) | 1 | 0.39 | inactive |
| RPS17 (ribosomal protein S17) | 2 | 3.02 | inactive |
| RPS17 (ribosomal protein S17) | 3 | 2.19 | inactive |
| BTG4 (BTG anti-proliferation factor 4) | 1 | 0.393 | inactive |
| BTG4 (BTG anti-proliferation factor 4) | 2 | 0.994 | inactive |
| BTG4 (BTG anti-proliferation factor 4) | 3 | -0.218 | inactive |
| TGM5 (transglutaminase 5) | 1 | -1.29 | inactive |
| TGM5 (transglutaminase 5) | 2 | -0.59 | inactive |
| TGM5 (transglutaminase 5) | 3 | -0.483 | inactive |
| SCAMP3 | 1 | 1.71 | inactive |
| SCAMP3 | 2 | 3.23 | inactive |
| SCAMP3 | 3 | 1.33 | inactive |
| SOFU1 (sperm-oocyte fusion factor 1) | 1 | -0.093 | inactive |
| SOFU1 (sperm-oocyte fusion factor 1) | 2 | -0.832 | inactive |
| SOFU1 (sperm-oocyte fusion factor 1) | 3 | -0.0238 | inactive |
| VWA3B (von Willebrand factor A domain containing 3B) | 1 | 0.623 | inactive |
| VWA3B (von Willebrand factor A domain containing 3B) | 2 | -0.392 | inactive |
| VWA3B (von Willebrand factor A domain containing 3B) | 3 | 1.01 | inactive |
